Results deposited as PubChem BioAssay AID504784 (Drosophila RNAi Screening Center, 2011)
The deposit covers about 17,000 reagents; shown is an unselected part of those with a known target gene and a result. 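Each column is one replicate's B-score; the combined score over replicates was not deposited, so single values may mislead.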 The numbers tell different reagents against one gene apart. Names joined by + are all predicted targets of the reagent. Reagent sequences are not shown.

Purpose: 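Fly genes whose silencing alters how much lipid cells keep in droplets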 (primary screen)
Cells: Drosophila Kc167 embryonic cells
Reagent: long dsRNA against Drosophila genes, about 250 ng dsRNA per well
Duration: 4 days
Treatment: cells fed 400 µM oleic acid bound to BSA
Detection: 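Microscope images give a droplet-to-nucleus area ratio, taken as log and converted to a screen-wide B-score; higher values mean greater lipid storage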
Reading the numbers: droplet/nuclear area B-score: higher = more stored lipid (overstorage)

no.	Gene	reagent no.	droplet/nuclear area B-score, replicate 1	droplet/nuclear area B-score, replicate 2	droplet/nuclear area B-score, replicate 3
1	betaTub60D	1	2.16	-0.354	
2	betaTub60D	2	8.08	1.02	
3	CG14851	1	-0.112	0.354	
4	CG14851	2	0.848	0.0438	
5	l(2)k14505	1	-1.07	-0.0186	
6	ss	1	-1.05	-0.0517	
7	Uxt	1	-1.61	-0.0951	
8	CG1492	1	0.733	0.678	1.61
9	CG5004	1	3.26	-0.0253	
10	CG5004	2	2.91	0.399	
11	CG5004	3	-1.16		
12	CG14837	1	0.276	0.0825	
13	GstD3	1	0.183	-0.231	
14	Unc50	1	0.622	1.23	
15	HtrA2	1	0.382	-0.175	
16	CG13795	1	0.888	1.2	
17	PolrMT	1	2.81	4.92	
18	CG4629	1	-0.934	-0.616	
19	IntS6	1	3.09	2.43	1.88
20	CG10761	1	0.281	-0.473	
21	Ctr1C	1	-1.27	0.38	
22	pod1	1	-1.25	-0.833	-0.469
23	Arpc4	1	1.09	0.0371	
24	CG13282	1	0.0416	1.18	
25	CG3502 + CG9863	1	0.00689	0.193	
26	bin3	1	1.21	-1.64	
27	CG30391	1	0.00388	-1.59	
28	udd	1	-0.629	0.621	
29	SCAR	1	-1.61	0.122	
30	CG32391	1	1.49	3.18	
31	CG30177	1	-0.206	0.0199	
32	CG7248	1	0.304	0.454	
33	m	1	2.11	0.0298	-1.73
34	CG7582	1	0.79	-1.93	

Targets listed so far whose gene name starts with P or p (2):
Gene	reagent no.	droplet/nuclear area B-score, replicate 1	droplet/nuclear area B-score, replicate 2	droplet/nuclear area B-score, replicate 3
PolrMT	1	2.81	4.92	
pod1	1	-1.25	-0.833	-0.469
